Data on five molecules can be found in patent US11542277B2, “Nitrated hydrocarbons, derivatives, and processes for their manufacture” (Angus Chemical Company, priority 2008, dated 2023).

The data set is described as follows: DSC evaluation of oxazolidine hardeners in PF novolac resin formulations (curing onset/peak, heat of curing, Tg on re-scan). The note with it: for Onset, curing event 1 (Onset/Peak 1) / Peak, curing event 1 (Onset/Peak 1): DSC 25-250 C at 10 C/minute, nitrogen; for Tg after cure: re-scan.

Molecules are shown by their SMILES.

As to `c1ccc(C23COCN2COC3)cc1` [A], where the note is “PHR 48”, the “Onset, curing event 1 (Onset/Peak 1)” value is recorded as 58.1; the “Peak, curing event 1 (Onset/Peak 1)” value is on record as 96.5; the “Heat of curing, event 1” value is “(28.8) J/g”; the “Heat of curing, event 2” value is recorded as “(161.2) J/g”. For the same molecule, for the setting “PHR 48”, the “Observations After Cure (re-scan)” value is listed as “No exotherm,”; the “Onset, curing event 2 (Onset/Peak 2)” value worked out at 202; the “Peak, curing event 2 (Onset/Peak 2)” value is recorded as 224.1; the Tg after cure entry is “Tg = 110 C”.

As for `C1CCC2(CC1)COCN2` [B], under “PHR 72”, the “Onset, curing event 1 (Onset/Peak 1)” value turned out to be 55; the “Peak, curing event 1 (Onset/Peak 1)” value is 193.5; the “Heat of curing, event 1” value was “(129.2) J/g”; the “Observations After Cure (re-scan)” value was “No exotherm,”. Moreover, for the setting “PHR 72”, the “Onset/Peak 2 (Heat J/g), second curing event” value (“Onset/Peak 2 (Heat J/g)” below) was “None” and the Tg after cure entry is given as “Tg = 140 C”.

Consider `CCCC1(CC)COCN1` (stereo not shown) [C], for which, under “PHR 72”, the “Onset, curing event 1 (Onset/Peak 1)” value is 161.4; the “Peak, curing event 1 (Onset/Peak 1)” value amounted to 192.3; the “Heat of curing, event 1” value was “(47.2) J/g”; the “Observations After Cure (re-scan)” value was “No exotherm,”. Under “PHR 72”, the “Onset/Peak 2 (Heat J/g)” value was “None” and the Tg after cure result was “Tg = 38 C”.

For the molecule `CCCCC1(CC)COCN1` (stereo not shown) [D], where the note is “PHR 76”, the “Onset, curing event 1 (Onset/Peak 1)” value is given as 62.3; the “Peak, curing event 1 (Onset/Peak 1)” value was found to be 105.5; the “Heat of curing, event 1” value is “(11.0) J/g”; the “Heat of curing, event 2” value is on record as “(65.4) J/g”. Besides, where the note is “PHR 76”, the “Observations After Cure (re-scan)” value is reported as “No exotherm,”; the “Onset, curing event 2 (Onset/Peak 2)” value is 163.3/; the “Peak, curing event 2 (Onset/Peak 2)” value is recorded as 184.9; the Tg after cure result is “Tg = 58 C”.

Turning to `CCC12COCN1COC2` [ZE], where the note is “PHR 33.3 (Baseline 1)”, the “Onset, curing event 1 (Onset/Peak 1)” value was found to be 166; the “Peak, curing event 1 (Onset/Peak 1)” value is recorded as 194; the “Heat of curing, event 1” value is listed as “(264) J/g”; the “Observations After Cure (re-scan)” value is listed as “No exotherm,”. Where the note is “PHR 33.3 (Baseline 1)”, the “Onset/Peak 2 (Heat J/g)” value is “None” and the Tg after cure entry is recorded as “Tg > 200 C”. Moreover, for the setting “PHR 44.2 (Baseline 2)”, the “Onset, curing event 1 (Onset/Peak 1)” value is given as 171; the “Peak, curing event 1 (Onset/Peak 1)” value turned out to be 198; the “Heat of curing, event 1” value was “(244 J/g”; the “Observations After Cure (re-scan)” value was “No exotherm,”. Moreover, under “PHR 44.2 (Baseline 2)”, the “Onset/Peak 2 (Heat J/g)” value was “None” and the Tg after cure result is “Tg > 200 C”.
